# Numbered stars: 1 amine (or outer) side, 2 acyl side, 3 side chain; on linkers, the order of the positions; unused ones are H or OH. Bridge positions count the residues as written; N and C are the ends. Square brackets hold non-standard residues; d marks the D form. * marks the point of attachment. DOTA = O=C(O)CN1CCN(CC(=O)O)CCN(CC(=O)*)CCN(CC(=O)O)CC1; TATA = O=C(CC[*:1])N1CN(C(=O)CC[*:2])CN(C(=O)CC[*:3])C1; Hyp = O=C(O)[C@@H]1C[C@@H](O)CN1; hArg = N=C(N)NCCCC[C@H](N)C(=O)O; Cba = N[C@@H](CC1CCC1)C(=O)O; βAla = NCCC(=O)O; Sar = CNCC(=O)O
# Experiment: general procedure: peptide synthesis; Rink resin
# Conditions: whole synthesis
# [1] = scale 1.85 g resin, 0.54 mmol/g
substance,measurement,setting,value
{DOTA-βAla}-[Sar][Sar][Sar][Sar][Sar][Sar][Sar][Sar][Sar][Sar]A[hArg]DC[Hyp][Cba]VNPLCLHP[dD]W[hArg]C-NH2 (linker 14-21-28 via TATA; SMILES CC(C)C[C@@H]1NC(=O)[C@@H]2CSCCC(=O)N3CN(CN(C3)C(=O)CCSC[C@H](NC(=O)[C@H](CC(=O)O)NC(=O)[C@H](CCCCNC(=N)N)NC(=O)[C@H](C)NC(=O)CN(C)C(=O)CN(C)C(=O)CN(C)C(=O)CN(C)C(=O)CN(C)C(=O)CN(C)C(=O)CN(C)C(=O)CN(C)C(=O)CN(C)C(=O)CN(C)C(=O)CCNC(=O)CN3CCN(CC(=O)O)CCN(CC(=O)O)CCN(CC(=O)O)CC3)C(=O)N3C[C@H](O)C[C@H]3C(=O)N[C@@H](CC3CCC3)C(=O)N[C@@H](C(C)C)C(=O)N[C@@H](CC(N)=O)C(=O)N3CCC[C@H]3C(=O)N[C@@H](CC(C)C)C(=O)N2)C(=O)CCSC[C@@H](C(N)=O)NC(=O)[C@H](CCCCNC(=N)N)NC(=O)[C@H](Cc2c[nH]c3ccccc23)NC(=O)[C@@H](CC(=O)O)NC(=O)[C@@H]2CCCN2C(=O)[C@H](Cc2c[nH]cn2)NC1=O),final HPLC purity,HPLC,>95%
same,isolated mass,[1],1312.4 mg
same,isolated yield,[1],36.7%

# Source: article PMC11373624 (Theranostics, 2024)
